This is an account of results in paper PMC10912226, “Filament formation drives catalysis by glutaminase enzymes important in cancer progression” (Nature Communications, 2024).

Amino acid sequences for entries named in this document (tags omitted). A change or cut given only in a name is not applied to a line headed by its entry. Chains listed by the source or under a name are the forms on record and can include a tag or linker.
constitutively active human GAC (K320A) (O94925-3, form named): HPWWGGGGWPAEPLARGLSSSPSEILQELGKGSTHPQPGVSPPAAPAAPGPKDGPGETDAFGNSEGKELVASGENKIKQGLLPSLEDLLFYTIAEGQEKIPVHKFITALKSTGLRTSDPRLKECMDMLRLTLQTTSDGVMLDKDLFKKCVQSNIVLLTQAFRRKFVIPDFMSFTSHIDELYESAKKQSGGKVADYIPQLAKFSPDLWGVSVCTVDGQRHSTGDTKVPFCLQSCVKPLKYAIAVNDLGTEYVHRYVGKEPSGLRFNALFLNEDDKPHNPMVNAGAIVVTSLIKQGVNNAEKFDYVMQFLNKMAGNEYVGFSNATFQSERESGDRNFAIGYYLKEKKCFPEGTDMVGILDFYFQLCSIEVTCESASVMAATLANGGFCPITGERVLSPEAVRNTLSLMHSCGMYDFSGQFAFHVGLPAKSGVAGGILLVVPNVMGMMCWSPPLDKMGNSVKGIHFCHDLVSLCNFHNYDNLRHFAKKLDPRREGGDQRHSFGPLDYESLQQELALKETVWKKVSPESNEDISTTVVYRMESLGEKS
human GAC (Y466W) mutant (O94925-3, form named): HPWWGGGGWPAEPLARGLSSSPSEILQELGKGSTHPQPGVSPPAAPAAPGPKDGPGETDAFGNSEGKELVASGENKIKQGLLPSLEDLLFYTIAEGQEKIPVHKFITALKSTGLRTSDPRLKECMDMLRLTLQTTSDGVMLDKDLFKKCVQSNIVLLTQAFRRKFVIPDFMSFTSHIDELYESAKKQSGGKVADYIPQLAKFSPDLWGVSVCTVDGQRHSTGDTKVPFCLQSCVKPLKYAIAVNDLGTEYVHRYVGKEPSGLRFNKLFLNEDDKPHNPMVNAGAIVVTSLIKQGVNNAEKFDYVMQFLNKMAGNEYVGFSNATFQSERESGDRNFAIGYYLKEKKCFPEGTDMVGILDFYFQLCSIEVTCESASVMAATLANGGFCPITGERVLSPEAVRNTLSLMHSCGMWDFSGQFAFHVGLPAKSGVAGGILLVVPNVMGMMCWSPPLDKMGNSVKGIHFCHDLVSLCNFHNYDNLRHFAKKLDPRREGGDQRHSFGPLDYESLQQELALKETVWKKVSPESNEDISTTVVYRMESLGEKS
recombinant wild-type human glutaminase C (GAC) (O94925-3, form named): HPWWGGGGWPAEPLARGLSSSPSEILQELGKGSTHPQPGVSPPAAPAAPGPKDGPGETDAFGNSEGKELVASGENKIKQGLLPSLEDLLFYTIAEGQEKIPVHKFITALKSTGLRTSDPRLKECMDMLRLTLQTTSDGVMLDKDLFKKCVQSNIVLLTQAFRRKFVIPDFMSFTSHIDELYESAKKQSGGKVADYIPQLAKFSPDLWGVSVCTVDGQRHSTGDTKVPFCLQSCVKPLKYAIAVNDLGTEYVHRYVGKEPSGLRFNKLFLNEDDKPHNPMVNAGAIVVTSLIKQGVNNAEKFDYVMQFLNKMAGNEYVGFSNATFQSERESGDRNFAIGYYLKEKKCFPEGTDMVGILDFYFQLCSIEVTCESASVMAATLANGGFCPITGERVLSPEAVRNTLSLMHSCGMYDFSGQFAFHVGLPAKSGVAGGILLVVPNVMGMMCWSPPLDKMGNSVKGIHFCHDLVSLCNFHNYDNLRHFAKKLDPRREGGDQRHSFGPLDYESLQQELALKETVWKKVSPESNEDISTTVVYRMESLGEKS

These are yes or no findings as the source states them, for the method shown. Some results given as binding are weak or reduced against the parent protein; the word gives no strength.

Assay [1] concerns the target constitutively active human GAC (K320A) (human) (UniProt O94925). As to the kind of experiment: negative stain electron microscopy; constitutively active mutants with glutamine alone, no Pi; step: tetramers to filament; both purified.
The target is the same in assay [2]. The experiment in a line: right-angle light scattering (RALS); constitutively active mutants, 20 mM Tris-HCl pH 8.5, 150 mM NaCl, 25 °C, 340 nm; glutamine alone, no Pi; step: tetramers to filament; both purified.
Assay [3] has as its target human GAC (Y466W) mutant (human) (UniProt O94925). The experiment in a line: cryo-EM structure; GAC (Y466W) 8 µM with 20 mM glutamine and 1 M inorganic phosphate; helical reconstruction, D2 symmetry; filament of tetramers; both purified.
Assay [4] shares this target. As to the kind of experiment: right-angle light scattering (RALS); glutaminase 2 µM in 20 mM Tris-HCl pH 8.5, 150 mM NaCl, 25 °C, 340 nm; with Pi (50-100 mM) and glutamine 20 mM; step: tetramers to filament; both purified.
For assay [5] the target is unchanged. As to the kind of experiment: condition: only with UPGL0004 (1 µM); filament step; negative stain electron microscopy; GAC (Y466W) 1 µM with Pi 200 mM and UPGL0004 1 µM, 30 s after adding substrate 20 mM; step: tetramers to filament; both purified.
For assay [6] the target is unchanged. The experiment in a line: negative stain electron microscopy; glutaminase 1 µM with glutamine 20 mM and inorganic phosphate (50-200 mM), RT, 30 s to 1 min after mixing (GAC Y466W with DMSO also 30 min); step: tetramers to filament; both purified.
Assay [7] has as its target recombinant wild-type human glutaminase C (GAC) (human) (UniProt O94925). The assay is described as above.
In assay [8] the target is human liver-type glutaminase GLS2, wild type, without the mitochondrial localization sequence (residue 38-602) (human) (UniProt Q9UI32). As to the kind of experiment: condition: only with compound 968 (10 µM); filament step; negative stain electron microscopy; GLS2 1 µM with Pi 50 mM and compound 968 10 µM, 30 s after adding substrate 20 mM; step: tetramers to filament; both purified.

Assay [9] has the same target. As to the kind of experiment: condition: only without glutamine (Pi alone); filament step; right-angle light scattering (RALS); GLS2 2 µM in 20 mM Tris-HCl pH 8.5, 150 mM NaCl, 25 °C, 340 nm; with Pi, without glutamine; step: tetramers to filament; both purified.
Assay [10] has the same target. As to the kind of experiment: condition: only glutamate (20 mM) in place of glutamine; filament step; right-angle light scattering (RALS); GLS2 2 µM with Pi 100 mM, 25 °C, 340 nm; glutamate 20 mM added instead of glutamine; step: tetramers to filament; both purified.

Take “constitutively active human GAC (K320A) (from UniProt O94925-3 55-598) (enzyme)”: the binding result in assay [1] and in assay [2] was “binds” in each case.

On to “human GAC (Y466W) mutant (from UniProt O94925-3 55-598) (enzyme)”, for which the binding entry in [3] is “binds”; in assay [4], “binds”; in assay [5], “no binding”; in assay [6], “binds”.

“recombinant wild-type human glutaminase C (GAC) (from UniProt O94925-3 55-598) (enzyme)”: in assay [7], the binding entry is recorded as “binds”.

B1: human liver-type glutaminase GLS2, wild type, without the mitochondrial localization sequence (residue 38-602) (enzyme, UniProt Q9UI32 38-602, looked up)
chain: HHLSEAAAQGRETPHSHQPQHQDHDSSESGMLSRLGDLLFYTIAEGQERIPIHKFTTALKATGLQTSDPRLRDCMSEMHRVVQESSSGGLLDRDLFRKCVSSNIVLLTQAFRKKFVIPDFEEFTGHVDRIFEDVKELTGGKVAAYIPQLAKSNPDLWGVSLCTVDGQRHSVGHTKIPFCLQSCVKPLTYAISISTLGTDYVHKFVGKEPSGLRYNKLSLNEEGIPHNPMVNAGAIVVSSLIKMDCNKAEKFDFVLQYLNKMAGNEYMGFSNATFQSEKETGDRNYAIGYYLKEKKCFPKGVDMMAALDLYFQLCSVEVTCESGSVMAATLANGGICPITGESVLSAEAVRNTLSLMHSCGMYDFSGQFAFHVGLPAKSAVSGAILLVVPNVMGMMCLSPPLDKLGNSHRGTSFCQKLVSLFNFHNYDNLRHCARKLDPRREGAEIRNKTVVNLLFAAYSGDVSALRRFALSAMDMEQKDYDSRTALHVAAAEGHIEVVKFLIEACKVNPFAKDRWGNIPLDDAVQFNHLEVVKLLQDYQDSYTLSETQAEAAAEALSKENLESMV
notes: Tetramer in the apo state (cryo-EM); tetramers stack into filaments with glutamine and Pi; also called LGA; apo-GLS2; source: E. coli BL21 (DE3), purified (Co2+ TALON resin, HiTrap Q anion exchange, Superdex 200 SEC)
Consider B1, for which the binding result in assay [8], in assay [9] and in assay [10] was “no binding” each time.
